In publication PMC10316083, “Thermotoga maritima oriC involves a DNA unwinding element with distinct modules and a DnaA-oligomerizing region with a novel directional binding mode” (The Journal of Biological Chemistry, 2023):
Positions count from the first letter of the chain named. Names may count otherwise. No constants are given. Whether binding was seen depends on the method and setting. Some binding calls cover weakened binding; strength is not graded here.

B1: Thermotoga maritima DnaA initiator (tmaDnaA), wildtype (natural protein, UniProt P46798 1-440, looked up)
chain: MKERILQEIKTRVNRKSWELWFSSFDVKSIEGNKVVFSVGNLFIKEWLEKKYYSVLSKAVKVVLGNDATFEITYEAFEPHSSYSEPLVKKRAVLLTPLNPDYTFENFVVGPGNSFAYHAALEVAKHPGRYNPLFIYGGVGLGKTHLLQSIGNYVVQNEPDLRVMYITSEKFLNDLVDSMKEGKLNEFREKYRKKVDILLIDDVQFLIGKTGVQTELFHTFNELHDSGKQIVICSDREPQKLSEFQDRLVSRFQMGLVAKLEPPDEETRKSIARKMLEIEHGELPEEVLNFVAENVDDNLRRLRGAIIKLLVYKETTGKEVDLKEAILLLKDFIKPNRVKAMDPIDELIEIVAKVTGVPREEILSNSRNVKALTARRIGMYVAKNYLKSSLRTIAEKFNRSHPVVVDSVKKVKDSLLKGNKQLKALIDEVIGEISRRALSG
notes: DnaA chromosomal replication initiator protein of Thermotoga maritima (tmaDnaA); also called WT tmaDnaA; ATP-tmaDnaA; source: purified as described previously (40); plasmid pTHMA-1
B2: tmaDnaA R251A (Arg-finger variant) (protein, UniProt P46798 1-440)
chain: B1 chain with R251A

Experiments:
[1] = biological target: Thermotoga maritima DnaA initiator (tmaDnaA), wildtype (Thermotoga maritima) (UniProt P46798); assay: native gel or EMSA; ADP-bound tmaDnaA on a 30 bp DNA (300 nM) with tmaDnaA boxes 2 and 3; complexes C1 and C2; 8% polyacrylamide gel, GelStar staining; both purified
[2] = biological target: tmaDnaA R251A (Arg-finger variant) (Thermotoga maritima) (UniProt P46798); assay: native gel or EMSA; ATP-bound tmaDnaA on a 30 bp DNA (300 nM) with the oppositely oriented tmaDnaA boxes 2 and 3; complexes with one (C1) or two (C2) tmaDnaA molecules; 8% polyacrylamide gel, GelStar staining; self-interaction read from the preference for C2 on DNA; both purified

Binder | binding [1] | binding [2]
B1 | binds weakly | 
B2 |  | binds weakly
